About 10,000 (2.8%) of roughly 360,000 compounds were called active. The inconclusive results got no clear call from the source; some entries with a clear call stand among them for comparison. Calls follow the shape of the dose curve; as a rule, active = well fitted inhibition curve with a large enough effect; inconclusive = small, poorly fitted or top-dose-only effect; inactive = flat fitted curve, though single readings scatter. Potencies of inconclusive entries are doubtful fits and often do not repeat.
Biological target: Serine/threonine-protein kinase PLK1 (Homo sapiens) (UniProt P53350)
Assay: qHTS for Inhibitors of PLK1-PDB (polo-like kinase 1 - polo-box domain): Primary Screen; also: nearly all actives have a fitted effect of over 65% in size; as to max response, negative = inhibition: series mostly up to about 57 µM
Settings: Plk1 PBD binding of FITC phosphopeptide, fluorescence polarization
% is scaled to controls: 0 for no effect and ±100 for the full control effect; potency is read from the fitted curve at half-maximal effect.

By UniProt entry, the sequences of proteins in these tests, tags left out.
UniProt P53350, whole entry, looked up: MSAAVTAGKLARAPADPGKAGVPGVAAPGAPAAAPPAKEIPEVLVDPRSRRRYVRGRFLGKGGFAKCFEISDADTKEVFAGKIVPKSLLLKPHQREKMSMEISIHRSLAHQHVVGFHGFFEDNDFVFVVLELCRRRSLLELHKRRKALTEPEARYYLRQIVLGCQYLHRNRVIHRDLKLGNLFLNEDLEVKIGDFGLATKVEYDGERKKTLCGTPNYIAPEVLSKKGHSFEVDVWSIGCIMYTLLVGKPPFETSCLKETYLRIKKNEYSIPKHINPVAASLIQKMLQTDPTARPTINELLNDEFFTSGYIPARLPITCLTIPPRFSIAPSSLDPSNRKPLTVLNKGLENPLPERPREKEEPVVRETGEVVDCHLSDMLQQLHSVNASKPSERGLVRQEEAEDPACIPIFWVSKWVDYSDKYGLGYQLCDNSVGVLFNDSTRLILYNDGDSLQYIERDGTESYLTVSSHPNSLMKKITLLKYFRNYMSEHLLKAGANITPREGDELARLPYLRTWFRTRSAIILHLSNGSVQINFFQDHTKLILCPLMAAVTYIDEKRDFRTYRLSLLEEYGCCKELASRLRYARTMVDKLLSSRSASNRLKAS

SMILES	Potency	max response, negative = inhibition
C/C=C/c1ccc(OC(C)=O)c(OC)c1	inconclusive: 21.2 µM [inhibitor, single point]	–
COc1cc(/C=C2\SC(=O)N(c3ccccc3Cl)C2=O)cc([N+](=O)[O-])c1O	inconclusive: 26.7 µM [inhibitor, single point]	–
Cn1c2ccccc2c(=O)c2cc(C#CC3=CCCCC3)ccc21	inconclusive: 18.9 µM [inhibitor, partial curve]	–
CCN(CC)CC(=O)Nc1cccc2c1C(=O)c1ccccc1C2=O	inconclusive: 23.8 µM [inhibitor, single point]	–
CNC(=O)c1ccsc1NC(=O)c1sc2ccccc2c1Cl	–	inconclusive: -30.8% [inhibitor]
CCc1ccccc1NC(=O)COc1ccc2c(c1)OCO2	inconclusive: 26.7 µM [inhibitor, single point]	–
CC[C@]12c3[nH]c4cc(CCC(=O)N(C)C)ccc4c3CCN1C(=O)[C@@H](CC(=O)NCCC1=CCCCC1)C[C@@H]2C(=O)N1CCN(C(=O)c2ccco2)CC1	inconclusive: 26.7 µM [inhibitor, partial curve]	–
COCCn1c(C)cc(C(=O)CSc2nc(C)c(C)c(C)n2)c1C	inconclusive: 21.2 µM [inhibitor, partial curve]	–
CCn1c(Sc2ccc([N+](=O)[O-])cn2)nnc1-c1ccco1	–	inactive: -27.5%
Cc1cccc(-n2c(N)cc(=O)[nH]c2=S)c1	–	inactive: -12.6%
CCc1ncc(CN2CCCC(C(=O)Nc3cccc(-c4cccc(C)c4)c3)C2)cn1 (centres undefined)	–	inactive: -6.49%
COc1cccc(C(=O)Oc2ccc3c(C)cc(=O)oc3c2C(C)=O)c1	inconclusive: 26.7 µM [inhibitor, partial curve]	–
C=CCNc1nc(=S)[nH]c2cc(OC)c(OC)cc12	–	inactive: -9.63%
Cc1ccccc1S(=O)(=O)Nc1nc2ccccc2nc1N1CCc2ccccc2C1	–	inconclusive: -30.5% [inhibitor]
CCOC(=O)c1ccc(Cn2c(-c3ccccc3)nnc2-c2ccccc2)o1	active: 23.8 µM	–
Cc1cccc2cc3c(nc12)SC(=NCC1CCCO1)N(Cc1ccco1)C3 (centres undefined)	active: 23.8 µM	–
CCC(C(=O)NCCC1=CCCCC1)n1nc(C)c2c(C)n(-c3ccccc3)nc2c1=O (centres undefined)	active: 26.7 µM	–
CC1CCC(NC(=O)CCn2ccc3cc(S(=O)(=O)N4CCCC4)ccc32)CC1 (centres undefined)	–	inconclusive: -32.1% [inhibitor]
COc1ccc(S(=O)(=O)NC2CCCCC2)cc1-n1cnnn1	active: 26.7 µM	–
O=C(Nc1ccc2c(c1)CCC2)c1cnc(Cl)c(Cl)c1	active: 21.2 µM	–
COc1cc(/C=C2/S/C(=N/S(=O)(=O)Cc3ccccc3)NC2=O)c([N+](=O)[O-])cc1OC	active: 23.8 µM	–
COC(=O)[C@H](Cc1ccccc1)NC(=O)C1CCN(C(=O)[C@H](C)NS(=O)(=O)c2ccc(C)cc2)CC1	inconclusive: 29.9 µM [inhibitor, partial curve, poor fit]	–
Cc1ccc(C(=O)Oc2ccc(C(=S)N3CCOCC3)cc2)cc1	inconclusive: 26.7 µM [inhibitor, partial curve]	–

Reformatted: 5 of the compounds above
SMILES | Potency | max response, negative = inhibition
C=CCNc1nc(=S)[nH]c2cc(OC)c(OC)cc12 | – | inactive: -9.63%
Cc1ccccc1S(=O)(=O)Nc1nc2ccccc2nc1N1CCc2ccccc2C1 | – | inconclusive: -30.5% [inhibitor]
CCOC(=O)c1ccc(Cn2c(-c3ccccc3)nnc2-c2ccccc2)o1 | active: 23.8 µM | –
Cc1cccc2cc3c(nc12)SC(=NCC1CCCO1)N(Cc1ccco1)C3 (centres undefined) | active: 23.8 µM | –
CCC(C(=O)NCCC1=CCCCC1)n1nc(C)c2c(C)n(-c3ccccc3)nc2c1=O (centres undefined) | active: 26.7 µM | –

The list continues.

SMILES	Potency	max response, negative = inhibition
N#Cc1nc(COc2ccccc2Cl)oc1NCc1cccnc1	inconclusive: 21.2 µM [inhibitor, single point]	–
CNC(=S)N/N=C/c1ccc(-c2ccc(C(=O)O)cc2)o1	inconclusive: 33.6 µM [inhibitor, partial curve]	–
COc1cccc2cc(C(=O)Nc3ccc(F)cc3)c(=Nc3ccc(C(=O)O)cc3)oc12	inconclusive: 26.7 µM [inhibitor, single point]	–
Cc1cc(N2O[C@H]3C=C[C@@H]2C3)no1	inconclusive: 29.9 µM [inhibitor, partial curve]	–
Cc1sc2nc(CSC(C)C(=O)NC3(C#N)CCCCC3)[nH]c(=O)c2c1C (centres undefined)	inconclusive: 15 µM [inhibitor, partial curve]	–
Cc1ccc(-c2cc(C(=O)N/N=C/c3ccc([N+](=O)[O-])o3)c3ccccc3n2)o1	inconclusive: 26.7 µM [inhibitor, partial curve]	–
Cc1cc(=O)n2nc(N3CCCC(C(=O)NCc4cccc(Cl)c4)C3)sc2n1 (centres undefined)	inconclusive: 6.7 µM [inhibitor, single point]	–
Cc1cccn2c(=O)c(/C=C(\C#N)C(N)=O)c(N3CCN(c4ccccc4)CC3)nc12	inconclusive: 16.8 µM [inhibitor, partial curve]	–
CCOc1cc(C(c2c(C)[nH][nH]c2=O)c2c(C)[nH][nH]c2=O)cc(Cl)c1O	–	inconclusive: -32.3% [inhibitor]
CCOC(=O)C1CCN(Cc2ccccc2C)CC1	–	inactive: -4.64%
O=C(N=Nc1c(O)[nH]c2ccc([N+](=O)[O-])cc12)c1ccccc1Cl	inconclusive: 10.6 µM [inhibitor, partial curve]	–
NC(=O)c1ncc(C(F)(F)F)cc1Oc1cccnc1	inconclusive: 18.9 µM [inhibitor, partial curve]	–
O=C(Oc1coc(CSc2ncccn2)cc1=O)c1cccc([N+](=O)[O-])c1	inconclusive: 18.9 µM [inhibitor, partial curve]	–
O=C(NC1=NCCS1)c1csc2ccccc12	inconclusive: 26.7 µM [inhibitor, partial curve]	–
O=c1c2ccccc2nc2n1C(CBr)CS2 (centres undefined)	inconclusive: 29.9 µM [inhibitor, single point]	–
COc1ccccc1-n1c(SCC(=O)O)nc2c(sc(=S)n2-c2ccc(C)c(C)c2)c1=O	–	inactive: -9.84%
CCCN1CCCc2cc(CN)ccc21	active: 18.9 µM	–
O=[N+]([O-])/C=C/c1ccc2c(ccn2Cc2ccccc2)c1	active: 3.36 µM	–
CC(=O)c1c(C)oc(C)c1CSCc1ccc(C(=O)O)o1	inconclusive: 18.9 µM [inhibitor, partial curve]	–
CCCCC(=O)Nc1ccccc1N1CCN(c2ccc(F)cc2)CC1	inconclusive: 23.8 µM [inhibitor, partial curve]	–
CCCC(c1nnnn1CCOC)N1CCN(Cc2ccccc2)CC1 (centres undefined)	inconclusive: 29.9 µM [inhibitor, partial curve]	–
Cc1cc(C)c2c(=O)n3c(nc2c1)C(CC(C)C)NC(=O)c1cccnc1-3 (centres undefined)	–	inactive: -2.87%
O=C(NCc1ccco1)C1CCN(C(=O)c2ccc(Cl)cc2Cl)CC1	inconclusive: 26.7 µM [inhibitor, single point]	–

SMILES	Potency	max response, negative = inhibition
COc1ccc2c(c1)-c1nc(/N=C/c3ccc(O)c(OC)c3)sc1CC2	inconclusive: 21.2 µM [inhibitor, partial curve]	–
O=C(/C=C/Sc1ncn[nH]1)c1ccc(Cl)cc1	inconclusive: 18.9 µM [inhibitor, partial curve]	–
COc1cc(C(=O)O)nc2ccccc12	–	inactive: 2.52%
O=C(CSc1nccn(-c2ccc(Br)cc2)c1=O)Nc1ccccc1F	inconclusive: 37.7 µM [inhibitor, partial curve]	–
COC(=O)c1ccccc1NC(=O)c1nc(S(=O)(=O)Cc2ccccc2)ncc1Cl	inconclusive: 5.97 µM [inhibitor, partial curve]	–
Cc1ccc(NS(=O)(=O)c2cccc(C(=O)n3ncc(C#N)c3N)c2)c(C)c1	inconclusive: 16.8 µM [inhibitor, partial curve]	–
C[C@H]1CN=C(Nc2ccccc2)N1CCCC1CCCC1	inconclusive: 23.8 µM [inhibitor, single point]	–
CSc1ccccc1NC(=O)c1ccc(Cl)s1	inconclusive: 18.9 µM [inhibitor, partial curve]	–
Cc1nc2nc(-c3cccs3)cn2nc1C	active: 29.9 µM	–
Clc1ccc(OCCCN2CCCC2)cc1Cl	–	inactive: -0.453%
Cc1c(Cl)c(C(F)F)nn1CC(=O)NC1C(=O)N2C(C(=O)O)=C(CSc3nnnn3C)CSC12 (centres undefined)	inconclusive: 23.8 µM [inhibitor, single point]	–
Cc1ccc(C)c(SCC(=O)OCC(=O)c2ccco2)c1	inconclusive: 26.7 µM [inhibitor, partial curve]	–
Cc1nc2nc[nH]n2c(=O)c1NS(=O)(=O)c1ccc([N+](=O)[O-])cc1	inconclusive: 29.9 µM [inhibitor, single point]	–
COc1cc(NC(=O)c2cnn3c(C)cc(C)nc23)c(OC)cc1Cl	inconclusive: 26.7 µM [inhibitor, single point]	–
COc1cc(C(=S)N2CCN(C(c3ccccc3)c3ccccc3)CC2)cc(OC)c1O	active: 13.4 µM	–
COc1cc(OC)c(NC(=S)Nc2cc(Cl)cc(Cl)c2)cc1Cl	inconclusive: 8.44 µM [inhibitor, partial curve, poor fit]	–
CCC(=O)Nc1ccc(C(=O)OCc2ccccc2)cc1	–	inactive: -0.308%
COc1ccc(OCCn2cc(/C=N/NC(=O)c3ccncc3)c3ccccc32)cc1	–	inactive: 3.84%
Cc1ccc(NC(=O)CSc2nsc(SCC(=O)Nc3ccc(C)cc3C)c2C#N)c(C)c1	–	inactive: -11%
CCOc1ccc(NC(=S)N2CCCN(Cc3cccc(Cl)c3)C2)cc1	–	inactive: -3.43%
Clc1c(CSc2nc3ccccc3o2)nc2ccccn12	inconclusive: 23.8 µM [inhibitor, partial curve]	–
Nc1nc2n(n1)C(c1c(F)cccc1Cl)CC(c1ccc(F)cc1)N2 (centres undefined)	inconclusive: 37.7 µM [inhibitor, single point]	–
CCOC(=O)c1sc2nc3c(SCC(=O)O)cc(C(=O)c4cc(F)ccc4O)cn3c(=O)c2c1C	–	inconclusive: -38.6% [inhibitor]

From PubChem BioAssay AID720504 (National Center for Advancing Translational Sciences (NCATS), 2013)
